Binding data for 1 substance are collected here from publication PMC12687436.

By UniProt entry, the sequences of proteins in these tests, tags left out.
UniProt P09493: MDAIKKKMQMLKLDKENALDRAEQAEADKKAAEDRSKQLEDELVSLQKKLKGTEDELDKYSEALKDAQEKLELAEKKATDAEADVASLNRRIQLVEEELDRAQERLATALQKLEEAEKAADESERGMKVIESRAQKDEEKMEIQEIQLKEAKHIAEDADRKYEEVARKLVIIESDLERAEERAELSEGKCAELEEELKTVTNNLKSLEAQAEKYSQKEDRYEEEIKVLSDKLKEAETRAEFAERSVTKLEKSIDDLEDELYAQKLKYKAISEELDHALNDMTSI

Results are given in words; binding and its absence hold for the method and conditions named. In cells and extracts the contact can be indirect. Some results given as binding are weak or reduced against the parent protein; the word gives no strength. Sequences can lack the tags named with a protein.

The experiment addresses T1, Tetraspanin 4 (TSPAN4), HA-tagged, overexpressed in VSMCs (UniProt O14817).
T1 sequence: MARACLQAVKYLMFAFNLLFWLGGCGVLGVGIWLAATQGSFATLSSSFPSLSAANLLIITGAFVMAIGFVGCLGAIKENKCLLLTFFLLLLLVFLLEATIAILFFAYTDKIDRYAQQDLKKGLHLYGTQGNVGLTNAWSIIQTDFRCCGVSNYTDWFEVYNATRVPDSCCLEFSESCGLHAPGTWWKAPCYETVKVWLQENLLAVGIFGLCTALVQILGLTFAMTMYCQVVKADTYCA
Briefly: co-IP; HA-tag immunoprecipitation of TSPAN4 from lysates of VSMCs overexpressing TSPAN4, IgG as control; detection by western blot.

In the case of “Tropomyosin-1 (TPM1) (from UniProt P09493 1-284)”, the binding result was “binds”.
